The list shows a part of the results.
How the values were obtained:
Assay in all cases: log2 fold change, soluble protein after heating vs DMSO (PISA); higher = thermal stabilisation; K562 cells, 10 uM, 30 min; active = over 0.2 and 3.5 SD of the protein, either way, in both replicates (recomputed)
bafetinib = compound: Cc1ccc(NC(=O)c2ccc(CN3CC[C@H](N(C)C)C3)c(C(F)(F)F)c2)cc1Nc1nccc(-c2cncnc2)n1 [bafetinib]
Procedure, shortened: (§1)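 K562 cells at 2×10^6 cells/mL were exposed to 10 μM compound for 30 min, then aliquots were heated for 3 min across 48°C-58°C, pooled, and extracted in PBS containing 0.5% NP-40 at 4°C. The supernatant after 21,000xg for 90 min was taken as soluble protein and measured by TMTpro 16plex LC-MS/MS with channel sums equalised. Thermal stability is reported relative to control samples, with values from duplicates. Fold changes are given on a log2 scale.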

By UniProt entry, the sequences of proteins in these tests, tags left out. Where a name states a change or a piece, a line headed by the entry shows the natural chain unless it says otherwise.
UniProt Q9UKU0: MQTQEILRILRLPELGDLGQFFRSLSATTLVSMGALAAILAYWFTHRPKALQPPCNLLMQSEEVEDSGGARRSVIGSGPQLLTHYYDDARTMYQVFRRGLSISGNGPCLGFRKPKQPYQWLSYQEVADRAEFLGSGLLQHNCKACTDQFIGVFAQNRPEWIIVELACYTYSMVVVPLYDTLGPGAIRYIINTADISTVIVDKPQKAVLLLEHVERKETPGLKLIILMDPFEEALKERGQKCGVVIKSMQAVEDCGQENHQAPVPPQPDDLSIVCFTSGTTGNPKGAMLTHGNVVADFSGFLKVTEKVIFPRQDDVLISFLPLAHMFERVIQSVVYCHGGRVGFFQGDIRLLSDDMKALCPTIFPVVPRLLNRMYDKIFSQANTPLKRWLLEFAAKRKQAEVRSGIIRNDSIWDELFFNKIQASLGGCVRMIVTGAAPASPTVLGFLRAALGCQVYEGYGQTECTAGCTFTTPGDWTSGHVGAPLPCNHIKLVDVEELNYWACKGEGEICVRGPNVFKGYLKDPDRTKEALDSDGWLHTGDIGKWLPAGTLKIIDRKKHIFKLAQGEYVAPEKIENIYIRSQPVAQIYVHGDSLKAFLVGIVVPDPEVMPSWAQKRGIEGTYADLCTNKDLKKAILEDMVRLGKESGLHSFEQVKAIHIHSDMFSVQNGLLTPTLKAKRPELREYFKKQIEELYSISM
UniProt Q9NPJ3: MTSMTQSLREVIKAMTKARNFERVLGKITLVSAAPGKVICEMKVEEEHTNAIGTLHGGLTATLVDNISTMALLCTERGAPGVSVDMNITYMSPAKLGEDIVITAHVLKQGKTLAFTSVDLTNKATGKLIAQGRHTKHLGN
UniProt Q9NUB1: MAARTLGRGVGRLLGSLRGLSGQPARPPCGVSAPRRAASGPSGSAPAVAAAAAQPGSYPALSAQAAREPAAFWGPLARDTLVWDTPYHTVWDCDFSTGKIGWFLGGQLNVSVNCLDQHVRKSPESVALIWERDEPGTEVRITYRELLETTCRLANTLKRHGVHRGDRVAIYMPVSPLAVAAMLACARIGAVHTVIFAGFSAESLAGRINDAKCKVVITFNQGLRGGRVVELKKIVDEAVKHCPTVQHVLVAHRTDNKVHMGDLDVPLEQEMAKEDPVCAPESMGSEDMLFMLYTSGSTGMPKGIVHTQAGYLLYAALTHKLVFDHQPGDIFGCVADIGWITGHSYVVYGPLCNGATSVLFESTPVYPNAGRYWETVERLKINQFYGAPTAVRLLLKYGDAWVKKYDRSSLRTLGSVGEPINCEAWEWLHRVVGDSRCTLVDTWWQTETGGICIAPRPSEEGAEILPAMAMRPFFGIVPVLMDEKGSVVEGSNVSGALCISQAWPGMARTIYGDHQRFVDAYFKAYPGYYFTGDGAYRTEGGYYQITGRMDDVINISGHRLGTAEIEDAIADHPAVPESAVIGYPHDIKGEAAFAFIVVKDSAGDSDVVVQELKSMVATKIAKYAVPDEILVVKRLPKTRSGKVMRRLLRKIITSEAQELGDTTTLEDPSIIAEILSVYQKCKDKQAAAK
UniProt P07311: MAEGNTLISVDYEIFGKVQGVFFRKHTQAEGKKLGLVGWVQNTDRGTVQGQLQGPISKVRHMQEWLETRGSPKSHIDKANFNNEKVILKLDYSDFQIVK
UniProt Q96M93: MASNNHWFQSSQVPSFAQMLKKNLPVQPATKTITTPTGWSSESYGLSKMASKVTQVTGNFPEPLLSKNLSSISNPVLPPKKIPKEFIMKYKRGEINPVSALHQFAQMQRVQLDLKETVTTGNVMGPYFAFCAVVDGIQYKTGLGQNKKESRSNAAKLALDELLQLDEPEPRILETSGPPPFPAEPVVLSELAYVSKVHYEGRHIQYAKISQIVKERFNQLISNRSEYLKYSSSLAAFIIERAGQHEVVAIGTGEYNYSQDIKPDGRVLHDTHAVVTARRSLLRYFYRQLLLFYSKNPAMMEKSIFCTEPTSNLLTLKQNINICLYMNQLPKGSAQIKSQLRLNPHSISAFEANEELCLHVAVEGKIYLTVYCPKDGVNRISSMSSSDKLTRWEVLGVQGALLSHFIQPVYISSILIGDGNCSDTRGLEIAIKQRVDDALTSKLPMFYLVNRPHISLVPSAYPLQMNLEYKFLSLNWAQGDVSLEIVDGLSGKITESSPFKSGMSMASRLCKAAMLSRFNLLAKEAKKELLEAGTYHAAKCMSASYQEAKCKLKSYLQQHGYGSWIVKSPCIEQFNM
UniProt P33527: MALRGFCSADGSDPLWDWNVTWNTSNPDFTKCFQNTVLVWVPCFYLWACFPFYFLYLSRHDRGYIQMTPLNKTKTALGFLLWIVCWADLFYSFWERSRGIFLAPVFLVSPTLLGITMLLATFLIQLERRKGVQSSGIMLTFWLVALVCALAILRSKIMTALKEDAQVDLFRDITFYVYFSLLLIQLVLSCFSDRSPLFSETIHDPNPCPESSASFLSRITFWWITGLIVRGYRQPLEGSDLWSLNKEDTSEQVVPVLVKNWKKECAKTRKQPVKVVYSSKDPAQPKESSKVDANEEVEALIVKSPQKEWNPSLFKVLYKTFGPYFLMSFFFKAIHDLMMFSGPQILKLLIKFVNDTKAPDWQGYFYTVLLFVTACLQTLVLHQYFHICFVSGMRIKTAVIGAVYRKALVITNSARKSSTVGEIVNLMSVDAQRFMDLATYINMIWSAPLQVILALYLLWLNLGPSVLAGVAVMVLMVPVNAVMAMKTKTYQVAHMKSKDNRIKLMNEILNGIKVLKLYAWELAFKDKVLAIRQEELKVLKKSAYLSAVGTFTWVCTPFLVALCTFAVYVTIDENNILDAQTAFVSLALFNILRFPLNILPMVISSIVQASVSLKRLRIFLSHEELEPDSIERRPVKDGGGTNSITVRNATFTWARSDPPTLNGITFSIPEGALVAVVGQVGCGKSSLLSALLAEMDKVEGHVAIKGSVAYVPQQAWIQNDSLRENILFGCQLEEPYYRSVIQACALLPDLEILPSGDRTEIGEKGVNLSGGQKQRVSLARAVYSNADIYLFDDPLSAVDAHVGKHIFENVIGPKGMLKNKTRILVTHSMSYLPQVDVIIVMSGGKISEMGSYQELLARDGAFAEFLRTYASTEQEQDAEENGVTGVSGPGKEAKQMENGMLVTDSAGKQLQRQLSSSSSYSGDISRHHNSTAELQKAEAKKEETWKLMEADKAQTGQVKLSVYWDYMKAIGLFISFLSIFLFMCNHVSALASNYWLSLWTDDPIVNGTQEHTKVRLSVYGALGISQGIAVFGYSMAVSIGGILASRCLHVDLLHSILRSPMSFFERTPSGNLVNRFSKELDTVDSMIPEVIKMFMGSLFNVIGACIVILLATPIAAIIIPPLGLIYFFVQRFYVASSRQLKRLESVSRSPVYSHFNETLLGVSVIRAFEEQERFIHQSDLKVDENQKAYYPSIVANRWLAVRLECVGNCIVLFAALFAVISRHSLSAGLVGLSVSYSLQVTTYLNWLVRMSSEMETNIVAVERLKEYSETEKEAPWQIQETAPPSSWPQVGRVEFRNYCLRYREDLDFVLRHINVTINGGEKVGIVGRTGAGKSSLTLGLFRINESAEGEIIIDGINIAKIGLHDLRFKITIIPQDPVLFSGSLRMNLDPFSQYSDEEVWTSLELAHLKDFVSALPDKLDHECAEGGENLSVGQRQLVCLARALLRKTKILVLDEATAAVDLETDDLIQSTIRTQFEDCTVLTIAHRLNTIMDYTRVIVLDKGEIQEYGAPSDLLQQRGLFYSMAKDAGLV
UniProt Q9UNA0: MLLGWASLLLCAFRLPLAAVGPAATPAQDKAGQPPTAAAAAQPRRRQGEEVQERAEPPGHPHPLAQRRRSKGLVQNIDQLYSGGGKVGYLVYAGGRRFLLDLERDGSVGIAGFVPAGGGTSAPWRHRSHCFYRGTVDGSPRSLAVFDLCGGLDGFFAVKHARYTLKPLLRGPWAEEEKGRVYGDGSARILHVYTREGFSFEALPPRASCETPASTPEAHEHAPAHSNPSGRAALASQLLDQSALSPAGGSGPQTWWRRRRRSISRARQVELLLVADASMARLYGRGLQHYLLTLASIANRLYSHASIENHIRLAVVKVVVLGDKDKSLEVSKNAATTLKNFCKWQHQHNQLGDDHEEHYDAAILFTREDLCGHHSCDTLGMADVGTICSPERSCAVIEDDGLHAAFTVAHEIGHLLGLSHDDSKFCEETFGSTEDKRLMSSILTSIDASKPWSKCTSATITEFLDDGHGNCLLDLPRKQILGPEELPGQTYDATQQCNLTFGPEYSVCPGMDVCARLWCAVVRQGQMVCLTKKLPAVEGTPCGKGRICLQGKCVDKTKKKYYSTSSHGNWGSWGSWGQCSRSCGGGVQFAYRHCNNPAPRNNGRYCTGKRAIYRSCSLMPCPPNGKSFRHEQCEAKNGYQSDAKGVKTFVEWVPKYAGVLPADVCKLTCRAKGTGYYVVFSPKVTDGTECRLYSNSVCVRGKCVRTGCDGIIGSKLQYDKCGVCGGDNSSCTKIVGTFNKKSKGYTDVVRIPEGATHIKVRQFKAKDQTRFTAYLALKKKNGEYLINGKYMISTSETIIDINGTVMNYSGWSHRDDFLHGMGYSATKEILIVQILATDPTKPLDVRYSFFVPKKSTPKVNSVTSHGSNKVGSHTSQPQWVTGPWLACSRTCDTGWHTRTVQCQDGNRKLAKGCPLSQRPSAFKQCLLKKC
UniProt O75027: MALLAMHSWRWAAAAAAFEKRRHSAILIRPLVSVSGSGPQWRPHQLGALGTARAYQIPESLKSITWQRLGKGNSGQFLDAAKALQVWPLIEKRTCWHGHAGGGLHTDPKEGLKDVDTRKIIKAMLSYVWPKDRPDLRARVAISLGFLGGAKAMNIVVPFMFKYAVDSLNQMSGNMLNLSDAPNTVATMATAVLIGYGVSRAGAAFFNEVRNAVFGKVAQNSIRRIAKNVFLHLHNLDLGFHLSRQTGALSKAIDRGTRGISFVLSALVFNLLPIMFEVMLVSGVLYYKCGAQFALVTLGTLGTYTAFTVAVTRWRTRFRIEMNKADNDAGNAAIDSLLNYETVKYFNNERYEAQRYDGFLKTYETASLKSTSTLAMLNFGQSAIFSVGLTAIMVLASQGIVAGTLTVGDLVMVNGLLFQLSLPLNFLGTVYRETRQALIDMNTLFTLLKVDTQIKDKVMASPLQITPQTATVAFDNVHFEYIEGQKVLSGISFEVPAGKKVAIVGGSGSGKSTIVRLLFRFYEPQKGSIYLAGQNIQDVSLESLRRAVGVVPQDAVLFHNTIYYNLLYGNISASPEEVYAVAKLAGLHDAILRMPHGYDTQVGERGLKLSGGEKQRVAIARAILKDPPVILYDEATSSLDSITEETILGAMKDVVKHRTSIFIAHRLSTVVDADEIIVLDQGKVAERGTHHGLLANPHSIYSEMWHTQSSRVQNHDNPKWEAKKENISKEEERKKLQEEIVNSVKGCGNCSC
UniProt Q4L235: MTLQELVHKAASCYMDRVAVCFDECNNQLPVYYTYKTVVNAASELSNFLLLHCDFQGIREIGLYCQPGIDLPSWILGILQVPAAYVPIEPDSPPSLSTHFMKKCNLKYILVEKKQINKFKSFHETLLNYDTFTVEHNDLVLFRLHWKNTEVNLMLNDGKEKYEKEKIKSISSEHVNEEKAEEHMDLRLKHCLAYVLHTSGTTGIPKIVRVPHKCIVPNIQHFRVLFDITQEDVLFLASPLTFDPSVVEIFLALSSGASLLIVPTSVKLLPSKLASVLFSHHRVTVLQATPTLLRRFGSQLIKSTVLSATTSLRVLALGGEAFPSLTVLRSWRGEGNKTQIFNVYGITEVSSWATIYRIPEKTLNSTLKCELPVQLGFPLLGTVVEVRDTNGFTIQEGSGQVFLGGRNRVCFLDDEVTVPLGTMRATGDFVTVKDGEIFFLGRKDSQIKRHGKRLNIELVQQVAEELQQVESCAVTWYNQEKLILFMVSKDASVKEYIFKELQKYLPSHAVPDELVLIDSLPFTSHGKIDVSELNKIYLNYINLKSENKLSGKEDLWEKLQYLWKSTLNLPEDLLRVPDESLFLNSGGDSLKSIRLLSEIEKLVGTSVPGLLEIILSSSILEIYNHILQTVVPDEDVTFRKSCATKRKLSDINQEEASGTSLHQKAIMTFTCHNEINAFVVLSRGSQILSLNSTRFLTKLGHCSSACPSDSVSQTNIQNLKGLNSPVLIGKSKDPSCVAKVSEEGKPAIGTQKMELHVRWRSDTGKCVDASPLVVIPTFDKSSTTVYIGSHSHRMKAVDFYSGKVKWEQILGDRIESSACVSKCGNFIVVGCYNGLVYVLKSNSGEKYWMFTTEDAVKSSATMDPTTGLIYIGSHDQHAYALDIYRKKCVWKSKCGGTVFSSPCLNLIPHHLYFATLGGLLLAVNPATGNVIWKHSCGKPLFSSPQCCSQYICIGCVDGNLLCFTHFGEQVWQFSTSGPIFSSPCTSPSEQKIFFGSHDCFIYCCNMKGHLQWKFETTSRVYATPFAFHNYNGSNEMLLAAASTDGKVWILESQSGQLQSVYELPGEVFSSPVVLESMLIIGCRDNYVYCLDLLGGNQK

[1] = compound: Cc1cccc(CC(=O)N2CCc3c2ccc(-c2cn(C)c4ncnc(N)c24)c3F)n1
Procedure, shortened: as §1

nilotinib = compound: Cc1cn(-c2cc(NC(=O)c3ccc(C)c(Nc4nccc(-c5cccnc5)n4)c3)cc(C(F)(F)F)c2)cn1 [nilotinib]
Procedure, shortened: as §1

[2] = compound: Cc1nc(Nc2n[nH]c3c2CN(C(=O)N[C@H](CN(C)C)c2ccccc2)C3(C)C)c2sccc2n1
Procedure, shortened: as §1

dasatinib = compound: Cc1nc(Nc2ncc(C(=O)Nc3c(C)cccc3Cl)s2)cc(N2CCN(CCO)CC2)n1 [dasatinib]
Procedure, shortened: as §1

[3] = compound: Cc1ncc(-c2ccnc(Nc3ccc(S(C)(=O)=O)cc3)n2)n1C(C)C
Procedure, shortened: as §1

[4] = compound: Cn1cc(-c2ccc3c(c2)CCN3C(=O)Cc2cccc(C(F)(F)F)c2)c2c(N)ncnc21
Procedure, shortened: as §1

[5] = compound: Cn1cc(-c2ccc3nnc(C(F)(F)c4ccc5ncccc5c4)n3n2)cn1
Procedure, shortened: as §1

tipifarnib = compound: Cn1cncc1[C@@](N)(c1ccc(Cl)cc1)c1ccc2c(c1)c(-c1cccc(Cl)c1)cc(=O)n2C [tipifarnib]
Procedure, shortened: as §1

mubritinib = compound: FC(F)(F)c1ccc(/C=C/c2nc(COc3ccc(CCCCn4ccnn4)cc3)co2)cc1 [mubritinib]
Procedure, shortened: as §1

[6] = compound: NC(=O)Nc1cc(-c2cccc(F)c2)sc1C(=O)N[C@H]1CCCNC1
Procedure, shortened: as §1

[7] = compound: NC(=O)c1cnc(N[C@@H]2CCCC[C@@H]2N)nc1Nc1cccc(-n2nccn2)c1
Procedure, shortened: as §1

[8] = compound: NC1(c2ccc(-c3nc4ccn5c(=O)[nH]nc5c4cc3-c3ccccc3)cc2)CCC1
Procedure, shortened: as §1

[9] = compound: NCC(=O)Nc1ccc(-n2nc(C(F)(F)F)cc2-c2ccc3c(ccc4ccccc43)c2)cc1
Procedure, shortened: as §1

entinostat = compound: Nc1ccccc1NC(=O)c1ccc(CNC(=O)OCc2cccnc2)cc1 [entinostat]
Procedure, shortened: as §1

vorinostat = compound: O=C(CCCCCCC(=O)Nc1ccccc1)NO [vorinostat]
Procedure, shortened: as §1

citarinostat = compound: O=C(CCCCCCNC(=O)c1cnc(N(c2ccccc2)c2ccccc2Cl)nc1)NO [citarinostat]
Procedure, shortened: as §1

silmitasertib = compound: O=C(O)c1ccc2c(c1)nc(Nc1cccc(Cl)c1)c1ccncc12 [silmitasertib]
Procedure, shortened: as §1

[10] = compound: O=C1NC(=O)C(c2cnc3ccccn23)=C1c1cn2c3c(cc(F)cc13)CN(C(=O)N1CCCCC1)CC2
Procedure, shortened: as §1

[11] = compound: c1cc(OCCN2CCCCC2)cc(-c2n[nH]c3ccc(-c4nnc[nH]4)cc23)c1
Procedure, shortened: as §1

Measured: log2 fold change

ACAA1 (UniProt P09110)
inactive: bafetinib -0.021 | [1] 0.001 | nilotinib 0.021 | [2] 0.003 | dasatinib 0.019 | [3] -0.025 | [4] 0.02 | [5] -0.008 | tipifarnib -0.002 | mubritinib 0.043 | [6] 0.019 | [7] 0.032 | [8] 0.04 | [9] 0.027 | entinostat -0.002 | vorinostat -0.036 | citarinostat 0.056 | silmitasertib 0.002 | [10] -0.028 | [11] -0.007

ACSL6 isoform 1 (UniProt Q9UKU0)
inactive: bafetinib 0.147 | [1] 0.057 | nilotinib -0.066 | [2] -0.066 | dasatinib 0.036 | [3] -0.025 | [5] 0.014 | mubritinib 0.015 | [6] 0.061 | [8] -0.152 | [9] -0.174 | entinostat -0.056 | vorinostat 0.048 | silmitasertib -0.077 | [10] -0.421

ACOT13 (UniProt Q9NPJ3)
inactive: bafetinib -0.041 | [1] 0.112 | nilotinib 0.046 | [2] -0.037 | dasatinib 0.032 | [3] 0.039 | [4] -0.022 | [5] -0.01 | tipifarnib -0.002 | mubritinib 0.007 | [6] 0.035 | [7] -0.019 | [8] 0.015 | [9] -0.023 | entinostat 0.006 | vorinostat 0.064 | citarinostat 0.032 | silmitasertib -0.023 | [10] 0.096 | [11] -0.016

ACSS1 (UniProt Q9NUB1)
inactive: bafetinib 0.025 | [1] -0.006 | nilotinib -0.054 | [2] 0.013 | dasatinib -0.012 | [3] -0.06 | [4] 0.004 | [5] 0.012 | tipifarnib 0.027 | mubritinib -0.078 | [6] 0.2 | [7] -0.041 | [8] -0.102 | [9] -0.122 | entinostat 0.091 | vorinostat 0.227 | citarinostat 0.033 | silmitasertib 0.063 | [11] -0.069

ACYP1 (UniProt P07311)
inactive: bafetinib 0.017 | [1] -0.032 | nilotinib 0.128 | [2] 0.013 | dasatinib -0.012 | [3] -0.021 | [4] 0.087 | [5] 0.076 | tipifarnib -0.031 | mubritinib -0.033 | [6] -0.06 | [7] -0.041 | [8] -0.027 | [9] -0.093 | entinostat 0.011 | vorinostat -0.021 | citarinostat 0.03 | silmitasertib -0.007 | [10] -0.022 | [11] -0.031

ADAM10 (UniProt O14672)
inactive: bafetinib -0.019 | [1] -0.021 | nilotinib 0.03 | [2] 0.003 | dasatinib -0.037 | [3] 0.009 | [4] 0.029 | [5] 0.003 | tipifarnib 0.023 | mubritinib 0.01 | [6] -0.047 | [7] 0.065 | [8] 0.036 | [9] 0.025 | entinostat -0.008 | vorinostat -0.021 | citarinostat -0.001 | silmitasertib -0.005 | [10] -0.011 | [11] -0.018

ABHD13 (UniProt Q7L211)
inactive: bafetinib -0.035 | [1] 0.014 | nilotinib -0.039 | [2] 0.07 | dasatinib -0.097 | [3] 0.101 | [5] -0.092 | tipifarnib -0.047 | mubritinib -0.038 | [6] -0.141 | [7] -0.036 | [8] -0.027 | [9] 0 | entinostat 0.114 | vorinostat -0.05 | citarinostat 0.047 | silmitasertib -0.031 | [10] -0.044 | [11] 0.037

2 successive entries from above:
ACOT13 (UniProt Q9NPJ3)
inactive: bafetinib -0.041 | [1] 0.112 | nilotinib 0.046 | [2] -0.037 | dasatinib 0.032 | [3] 0.039 | [4] -0.022 | [5] -0.01 | tipifarnib -0.002 | mubritinib 0.007 | [6] 0.035 | [7] -0.019 | [8] 0.015 | [9] -0.023 | entinostat 0.006 | vorinostat 0.064 | citarinostat 0.032 | silmitasertib -0.023 | [10] 0.096 | [11] -0.016

ACSS1 (UniProt Q9NUB1)
inactive: bafetinib 0.025 | [1] -0.006 | nilotinib -0.054 | [2] 0.013 | dasatinib -0.012 | [3] -0.06 | [4] 0.004 | [5] 0.012 | tipifarnib 0.027 | mubritinib -0.078 | [6] 0.2 | [7] -0.041 | [8] -0.102 | [9] -0.122 | entinostat 0.091 | vorinostat 0.227 | citarinostat 0.033 | silmitasertib 0.063 | [11] -0.069

Following part

ABCE1 (UniProt H0Y990)
inactive: bafetinib 0.095 | [1] -0.107 | nilotinib -0.147 | [2] 0.137 | dasatinib 0.035 | [3] -0.142 | [4] -0.005 | tipifarnib -0.013 | mubritinib 0 | [6] 0.175 | [7] -0.312 | [8] -0.062 | [9] -0.265 | entinostat -0.022 | vorinostat -0.055 | citarinostat -0.012 | silmitasertib 0.002 | [10] -0.001 | [11] -0.036

ABHD17B (UniProt Q5VST6)
inactive: bafetinib 0.041 | [1] -0.012 | nilotinib 0.198 | [2] 0.01 | dasatinib -0.027 | [3] -0.086 | [4] 0.052 | [5] 0 | tipifarnib 0.024 | mubritinib 0.021 | [7] 0.105 | [8] -0.059 | [9] 0.058 | vorinostat 0.003 | citarinostat -0.059 | silmitasertib 0 | [10] -0.003 | [11] -0.05

ADAD1 (UniProt Q96M93)
inactive: bafetinib -0.085 | [1] -0.15 | nilotinib -0.08 | [2] -0.037 | dasatinib 0.056 | [3] -0.109 | [4] -0.096 | [5] 0.072 | mubritinib -0.002 | [8] -0.144 | [9] -0.174 | vorinostat -0.065 | citarinostat 0.06 | silmitasertib 0.203 | [11] -0.004

ABCC1 (UniProt P33527)
inactive: bafetinib 0.028 | [1] 0.049 | nilotinib 0.033 | [2] 0.009 | dasatinib 0.008 | [3] -0.012 | [4] 0.032 | [5] 0.002 | tipifarnib 0.005 | mubritinib 0.012 | [6] -0.011 | [7] 0.035 | [8] 0 | [9] 0.005 | entinostat -0.027 | vorinostat 0.013 | citarinostat 0.027 | silmitasertib 0 | [10] 0.022 | [11] -0.041

ADAMTS5 (UniProt Q9UNA0)
inactive: bafetinib -0.103 | [1] -0.066 | nilotinib 0.022 | [2] 0.052 | dasatinib 0.033 | [3] -0.079 | [4] 0.088 | [5] 0.063 | mubritinib 0.154 | [6] 0.026 | [7] -0.065 | [8] 0.074 | [9] -0.071 | entinostat -0.08 | vorinostat 0.056 | citarinostat 0.074 | silmitasertib -0.064 | [11] 0.051

ABHD11 (UniProt Q8NFV4)
inactive: bafetinib 0.011 | [1] 0.175 | nilotinib 0.003 | [2] -0.006 | dasatinib 0.073 | [3] 0.083 | [4] 0.024 | [5] 0.025 | tipifarnib 0.174 | mubritinib -0.235 | [7] -0.089 | [8] -0.139 | [9] 0.016 | vorinostat -0.042 | citarinostat 0.058 | silmitasertib -0.021 | [10] -0.159 | [11] -0.009

ABCB7 isoform 2 (UniProt O75027)
inactive: bafetinib -0.057 | [1] 0.084 | nilotinib -0.098 | [2] -0.003 | dasatinib -0.068 | [3] -0.026 | [4] 0.051 | [5] 0.002 | tipifarnib -0.138 | mubritinib 0.011 | [6] 0.011 | [7] -0.027 | [8] -0.099 | [9] -0.064 | entinostat 0.016 | vorinostat 0.059 | citarinostat 0.039 | silmitasertib -0.02 | [10] -0.027 | [11] -0.008

ABCC10 (UniProt Q5T3U5)
inactive: bafetinib 0.024 | [1] -0.034 | nilotinib -0.14 | [2] -0.238 | dasatinib 0.05 | [3] -0.187 | [5] 0 | tipifarnib -0.013 | [6] -0.089 | [7] -0.1 | [9] -0.219 | entinostat 0.015 | vorinostat -0.097 | [10] -0.07

AASDH (UniProt Q4L235)
inactive: bafetinib -0.065 | [1] -0.008 | nilotinib -0.079 | [2] -0.149 | dasatinib 0.063 | [3] 0.173 | [4] 0.045 | [5] 0.024 | tipifarnib 0.058 | mubritinib 0.144 | [6] -0.044 | [8] -0.12 | [9] -0.166 | entinostat 0.007 | vorinostat 0.051 | silmitasertib 0.036 | [10] -0.064

ACAT1, A0A5F9ZHJ0
inactive: bafetinib 0.013 | [1] -0.069 | nilotinib -0.098 | [2] -0.043 | dasatinib 0.01 | [3] -0.145 | [4] -0.105 | tipifarnib -0.219 | mubritinib 0.095 | [6] -0.02 | [7] -0.105 | [8] -0.183 | entinostat 0.001 | vorinostat -0.094 | citarinostat -0.138 | silmitasertib 0.054 | [10] -0.044 | [11] -0.173

Source: the supplement of paper PMC10849652
